Measurements reported in the supplement of paper PMC6411743.
± gives the standard deviation of the averaged measurements. The entries are a selection whose mix differs from that of the whole data set.

Sequences of proteins named here, by UniProt entry; tags and fusion partners are left off. A change or cut given only in a name is not applied to a line headed by its entry.
UniProt P11172: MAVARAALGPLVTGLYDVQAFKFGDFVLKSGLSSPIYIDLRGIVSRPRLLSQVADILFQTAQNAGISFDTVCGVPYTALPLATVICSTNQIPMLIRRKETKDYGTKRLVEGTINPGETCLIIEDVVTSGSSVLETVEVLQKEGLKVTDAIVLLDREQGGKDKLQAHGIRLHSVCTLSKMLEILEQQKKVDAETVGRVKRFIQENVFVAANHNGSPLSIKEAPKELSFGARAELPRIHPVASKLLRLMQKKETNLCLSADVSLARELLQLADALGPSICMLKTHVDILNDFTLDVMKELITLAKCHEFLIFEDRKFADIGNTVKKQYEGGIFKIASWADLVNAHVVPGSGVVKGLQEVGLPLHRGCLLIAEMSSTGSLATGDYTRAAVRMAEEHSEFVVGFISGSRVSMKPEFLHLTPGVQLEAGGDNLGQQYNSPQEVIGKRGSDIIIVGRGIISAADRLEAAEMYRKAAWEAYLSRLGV
UniProt P16591: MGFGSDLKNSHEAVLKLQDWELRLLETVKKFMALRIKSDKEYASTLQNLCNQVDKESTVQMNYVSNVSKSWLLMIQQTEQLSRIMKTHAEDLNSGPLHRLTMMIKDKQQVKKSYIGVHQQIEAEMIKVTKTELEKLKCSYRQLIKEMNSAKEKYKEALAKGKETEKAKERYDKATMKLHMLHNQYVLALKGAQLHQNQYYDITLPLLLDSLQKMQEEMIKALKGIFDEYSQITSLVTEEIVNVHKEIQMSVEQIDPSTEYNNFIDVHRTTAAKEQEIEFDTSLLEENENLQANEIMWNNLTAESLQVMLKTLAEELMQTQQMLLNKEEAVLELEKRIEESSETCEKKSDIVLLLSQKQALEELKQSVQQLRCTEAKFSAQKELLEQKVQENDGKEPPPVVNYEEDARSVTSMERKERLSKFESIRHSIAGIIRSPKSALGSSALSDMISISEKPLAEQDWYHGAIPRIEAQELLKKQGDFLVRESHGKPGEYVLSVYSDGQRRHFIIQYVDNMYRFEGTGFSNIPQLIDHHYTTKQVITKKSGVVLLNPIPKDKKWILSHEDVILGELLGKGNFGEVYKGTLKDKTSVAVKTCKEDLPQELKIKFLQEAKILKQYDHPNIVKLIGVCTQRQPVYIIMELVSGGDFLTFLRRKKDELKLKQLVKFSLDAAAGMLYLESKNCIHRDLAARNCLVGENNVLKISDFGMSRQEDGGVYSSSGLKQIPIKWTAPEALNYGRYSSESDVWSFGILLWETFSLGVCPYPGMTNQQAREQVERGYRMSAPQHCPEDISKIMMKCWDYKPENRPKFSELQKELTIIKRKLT
UniProt P14316: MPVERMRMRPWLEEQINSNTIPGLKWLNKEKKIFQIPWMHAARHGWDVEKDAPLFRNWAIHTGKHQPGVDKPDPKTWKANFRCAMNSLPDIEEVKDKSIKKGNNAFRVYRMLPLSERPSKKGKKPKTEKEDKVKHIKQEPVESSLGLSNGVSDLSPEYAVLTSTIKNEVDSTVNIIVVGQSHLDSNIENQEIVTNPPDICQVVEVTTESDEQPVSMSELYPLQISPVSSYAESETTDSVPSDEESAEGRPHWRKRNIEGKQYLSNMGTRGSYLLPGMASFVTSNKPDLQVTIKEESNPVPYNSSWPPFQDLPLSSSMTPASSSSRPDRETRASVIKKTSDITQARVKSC
UniProt P09104, whole entry: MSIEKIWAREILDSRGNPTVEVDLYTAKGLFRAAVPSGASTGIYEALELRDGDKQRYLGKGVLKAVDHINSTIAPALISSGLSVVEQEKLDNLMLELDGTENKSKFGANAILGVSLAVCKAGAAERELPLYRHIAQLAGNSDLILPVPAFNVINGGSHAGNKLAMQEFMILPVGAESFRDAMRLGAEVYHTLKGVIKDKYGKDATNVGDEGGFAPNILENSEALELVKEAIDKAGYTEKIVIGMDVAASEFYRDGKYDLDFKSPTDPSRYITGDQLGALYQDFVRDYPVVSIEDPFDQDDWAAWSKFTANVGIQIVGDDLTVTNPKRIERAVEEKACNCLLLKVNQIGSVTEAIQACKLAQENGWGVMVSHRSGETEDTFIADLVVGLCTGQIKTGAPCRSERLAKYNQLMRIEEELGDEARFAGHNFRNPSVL
UniProt O96008: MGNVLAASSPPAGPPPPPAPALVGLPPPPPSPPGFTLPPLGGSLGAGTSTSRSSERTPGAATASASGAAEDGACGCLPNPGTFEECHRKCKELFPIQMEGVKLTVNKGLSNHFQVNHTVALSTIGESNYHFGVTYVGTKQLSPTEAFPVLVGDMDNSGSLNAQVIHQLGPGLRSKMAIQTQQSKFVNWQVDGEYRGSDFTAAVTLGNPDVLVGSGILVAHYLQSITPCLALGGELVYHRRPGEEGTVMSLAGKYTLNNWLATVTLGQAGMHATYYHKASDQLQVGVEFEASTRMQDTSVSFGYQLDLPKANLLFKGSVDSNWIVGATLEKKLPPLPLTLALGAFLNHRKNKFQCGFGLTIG
UniProt P09488: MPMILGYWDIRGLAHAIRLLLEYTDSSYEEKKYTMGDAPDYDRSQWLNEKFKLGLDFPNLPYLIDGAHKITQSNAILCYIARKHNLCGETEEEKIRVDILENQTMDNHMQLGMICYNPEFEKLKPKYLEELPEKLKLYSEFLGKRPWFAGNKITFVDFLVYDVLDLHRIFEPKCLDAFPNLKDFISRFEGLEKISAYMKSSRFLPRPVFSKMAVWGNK
UniProt P00387: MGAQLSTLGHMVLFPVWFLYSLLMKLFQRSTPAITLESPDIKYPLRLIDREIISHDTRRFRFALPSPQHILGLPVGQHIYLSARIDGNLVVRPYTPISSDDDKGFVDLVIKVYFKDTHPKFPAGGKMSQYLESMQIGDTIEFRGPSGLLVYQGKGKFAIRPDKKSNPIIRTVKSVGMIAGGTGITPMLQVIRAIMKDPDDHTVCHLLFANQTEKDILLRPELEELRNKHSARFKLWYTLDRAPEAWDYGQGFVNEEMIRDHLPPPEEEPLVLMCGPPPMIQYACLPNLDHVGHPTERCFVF
UniProt P13861, whole entry: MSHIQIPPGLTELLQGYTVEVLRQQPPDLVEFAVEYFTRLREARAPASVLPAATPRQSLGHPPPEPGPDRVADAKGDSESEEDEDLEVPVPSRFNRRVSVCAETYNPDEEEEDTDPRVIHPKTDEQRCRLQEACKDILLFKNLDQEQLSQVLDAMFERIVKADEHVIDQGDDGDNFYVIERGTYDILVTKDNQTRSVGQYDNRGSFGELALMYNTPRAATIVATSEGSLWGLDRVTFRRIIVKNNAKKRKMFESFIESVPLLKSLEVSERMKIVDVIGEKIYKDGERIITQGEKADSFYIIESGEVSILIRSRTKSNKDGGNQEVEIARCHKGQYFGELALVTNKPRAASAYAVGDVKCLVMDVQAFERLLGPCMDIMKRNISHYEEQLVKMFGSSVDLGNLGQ
UniProt P15374: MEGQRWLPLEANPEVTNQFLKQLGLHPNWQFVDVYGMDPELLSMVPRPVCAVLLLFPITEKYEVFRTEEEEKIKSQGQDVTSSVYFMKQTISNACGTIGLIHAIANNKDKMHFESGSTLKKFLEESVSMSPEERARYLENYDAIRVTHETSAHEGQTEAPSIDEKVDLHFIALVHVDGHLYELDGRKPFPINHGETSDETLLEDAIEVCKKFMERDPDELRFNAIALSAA
UniProt P15812: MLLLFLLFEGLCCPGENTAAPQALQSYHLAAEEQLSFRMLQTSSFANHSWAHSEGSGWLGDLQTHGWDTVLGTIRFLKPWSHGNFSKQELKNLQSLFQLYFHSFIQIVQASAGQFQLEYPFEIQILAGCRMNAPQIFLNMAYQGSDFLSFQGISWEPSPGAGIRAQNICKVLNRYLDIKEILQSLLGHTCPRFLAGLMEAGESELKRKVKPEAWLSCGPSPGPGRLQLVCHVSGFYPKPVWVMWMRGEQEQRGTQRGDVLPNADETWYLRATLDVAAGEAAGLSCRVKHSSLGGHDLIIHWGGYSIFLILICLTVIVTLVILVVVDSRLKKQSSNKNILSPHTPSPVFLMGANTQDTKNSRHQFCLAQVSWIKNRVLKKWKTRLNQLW
UniProt P06576, whole entry: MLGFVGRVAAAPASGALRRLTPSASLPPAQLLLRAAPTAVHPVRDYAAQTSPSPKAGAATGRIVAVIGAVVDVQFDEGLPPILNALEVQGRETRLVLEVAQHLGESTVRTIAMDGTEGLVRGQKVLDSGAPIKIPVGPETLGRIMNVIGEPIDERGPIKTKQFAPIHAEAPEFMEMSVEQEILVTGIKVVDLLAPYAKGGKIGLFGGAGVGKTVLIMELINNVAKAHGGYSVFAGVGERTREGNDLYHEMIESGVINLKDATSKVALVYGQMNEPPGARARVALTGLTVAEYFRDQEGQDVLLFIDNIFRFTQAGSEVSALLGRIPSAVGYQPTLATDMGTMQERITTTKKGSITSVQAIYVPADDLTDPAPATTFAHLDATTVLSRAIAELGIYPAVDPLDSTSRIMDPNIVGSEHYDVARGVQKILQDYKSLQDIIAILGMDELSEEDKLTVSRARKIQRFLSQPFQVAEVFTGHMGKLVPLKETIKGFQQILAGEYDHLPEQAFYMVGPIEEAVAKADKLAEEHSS
UniProt O96011: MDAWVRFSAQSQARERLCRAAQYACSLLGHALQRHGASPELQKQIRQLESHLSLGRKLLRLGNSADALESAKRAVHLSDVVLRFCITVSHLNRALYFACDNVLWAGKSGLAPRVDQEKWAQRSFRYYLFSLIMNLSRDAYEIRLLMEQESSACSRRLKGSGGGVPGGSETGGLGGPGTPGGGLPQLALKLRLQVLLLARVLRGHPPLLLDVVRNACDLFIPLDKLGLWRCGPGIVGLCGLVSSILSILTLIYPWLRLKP
UniProt P09972: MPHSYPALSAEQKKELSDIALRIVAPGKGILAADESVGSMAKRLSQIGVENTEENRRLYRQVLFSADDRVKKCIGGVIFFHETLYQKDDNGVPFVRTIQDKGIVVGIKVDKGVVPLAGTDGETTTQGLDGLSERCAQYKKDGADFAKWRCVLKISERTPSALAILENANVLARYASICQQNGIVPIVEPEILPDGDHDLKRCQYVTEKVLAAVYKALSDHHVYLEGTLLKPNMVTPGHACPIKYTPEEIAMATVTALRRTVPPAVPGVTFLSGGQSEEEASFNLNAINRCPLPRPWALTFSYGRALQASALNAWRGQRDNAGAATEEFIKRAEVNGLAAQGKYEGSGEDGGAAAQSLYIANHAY
UniProt P16615: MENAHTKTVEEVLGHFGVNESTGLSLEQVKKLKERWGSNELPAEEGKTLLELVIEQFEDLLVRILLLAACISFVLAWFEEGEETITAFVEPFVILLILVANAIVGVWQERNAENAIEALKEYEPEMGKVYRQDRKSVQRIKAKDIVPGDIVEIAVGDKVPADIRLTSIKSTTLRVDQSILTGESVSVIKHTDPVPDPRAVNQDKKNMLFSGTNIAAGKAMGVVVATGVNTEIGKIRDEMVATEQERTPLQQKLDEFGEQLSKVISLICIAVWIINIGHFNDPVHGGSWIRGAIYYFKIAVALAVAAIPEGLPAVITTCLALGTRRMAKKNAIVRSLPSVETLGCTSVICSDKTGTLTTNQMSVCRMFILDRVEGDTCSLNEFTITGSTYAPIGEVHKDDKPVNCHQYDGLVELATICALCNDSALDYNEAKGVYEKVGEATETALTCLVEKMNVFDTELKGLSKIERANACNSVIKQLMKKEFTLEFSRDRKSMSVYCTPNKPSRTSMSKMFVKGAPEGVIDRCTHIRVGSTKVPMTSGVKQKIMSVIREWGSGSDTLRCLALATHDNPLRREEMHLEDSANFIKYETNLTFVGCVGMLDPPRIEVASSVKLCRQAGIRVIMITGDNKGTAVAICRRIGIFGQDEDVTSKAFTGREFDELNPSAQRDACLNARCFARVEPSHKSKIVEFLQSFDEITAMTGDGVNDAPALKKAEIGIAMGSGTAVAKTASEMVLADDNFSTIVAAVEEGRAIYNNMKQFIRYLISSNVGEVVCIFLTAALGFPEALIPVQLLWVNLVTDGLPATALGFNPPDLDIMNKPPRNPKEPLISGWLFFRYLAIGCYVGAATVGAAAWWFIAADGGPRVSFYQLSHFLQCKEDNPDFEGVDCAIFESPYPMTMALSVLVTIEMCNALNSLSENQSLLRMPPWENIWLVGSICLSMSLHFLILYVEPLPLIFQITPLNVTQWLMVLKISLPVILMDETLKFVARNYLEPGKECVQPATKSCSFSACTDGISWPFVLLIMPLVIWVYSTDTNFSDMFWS
UniProt P05423: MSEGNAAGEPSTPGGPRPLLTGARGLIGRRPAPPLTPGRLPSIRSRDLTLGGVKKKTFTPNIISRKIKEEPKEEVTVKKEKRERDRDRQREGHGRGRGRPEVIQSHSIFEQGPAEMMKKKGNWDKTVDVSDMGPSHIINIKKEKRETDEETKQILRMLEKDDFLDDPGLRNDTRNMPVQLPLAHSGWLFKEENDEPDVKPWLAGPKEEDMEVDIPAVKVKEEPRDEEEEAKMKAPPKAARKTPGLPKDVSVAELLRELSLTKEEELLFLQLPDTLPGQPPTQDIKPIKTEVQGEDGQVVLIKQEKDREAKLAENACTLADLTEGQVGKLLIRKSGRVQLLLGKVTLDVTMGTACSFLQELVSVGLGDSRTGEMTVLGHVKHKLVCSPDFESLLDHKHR

Compound: Nc1ncnc2c1ncn2[C@@H]1O[C@H](COP(=O)(O)OP(=O)(O)NP(=O)(O)O)[C@@H](O)[C@H]1O [adenylyl imidodiphosphate]
Assay: NP40-soluble protein abundance relative to vehicle (solubility fold change) (ratio); higher = more soluble protein in presence of AMP-PNP
Outline: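 Across three independent experiments, values are fold changes against the detergent-processed vehicle for each replicate, based on vsn-normalised intensities. The samples were Jurkat crude lysate treated with eight concentrations (0.1 to 10 mM) for 10 min at room temperature and then 3 min at 37 °C. Lysate was solubilised with 0.8% NP40 and benzonase, ultracentrifuged, and the supernatant analysed by TMT-labelled LC-MS/MS.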

Target	NP40-soluble protein abundance (concentration: 1mM)	NP40-soluble protein abundance (concentration: 2mM)	NP40-soluble protein abundance (concentration: 4mM)	NP40-soluble protein abundance (concentration: 6mM)	NP40-soluble protein abundance (concentration: 8mM)	NP40-soluble protein abundance (concentration: 10mM)
UniProt P09693	1 ± 0.045	1.03 ± 0.1	0.979 ± 0.058	1 ± 0.025	0.997 ± 0.051	0.998 ± 0.018
ACAA1 (UniProt P09110)	0.993 ± 0.012	0.975 ± 0.021	1 ± 0.024	0.9983 ± 0.0097	0.991 ± 0.014	0.99 ± 0.023
UniProt P01112	1.06 ± 0.026	1.04 ± 0.016	1.03 ± 0.021	1 ± 0.062	1.06 ± 0.021	1.01 ± 0.025
UniProt P13716 and related entries	1.02 ± 0.021	0.976 ± 0.045	1.03 ± 0.04	1.02 ± 0.056	1.01 ± 0.065	1.02 ± 0.05
UROS (UniProt P10746)	1.04 ± 0.012	1.03 ± 0.015	1 ± 0.045	0.99 ± 0.029	0.975 ± 0.051	0.982 ± 0.075
FTH1 (UniProt P02794)	1.01 ± 0.078	1.03 ± 0.026	0.984 ± 0.03	0.87 ± 0.1	0.887 ± 0.09	0.864 ± 0.093
COX6B1 (UniProt P14854)	0.864 ± 0.041	0.926 ± 0.032	0.916 ± 0.063	0.86 ± 0.055	0.821 ± 0.016	0.839 ± 0.019
PLEK (UniProt P08567)	1.052 ± 0.0013	0.996 ± 0.01	1.02 ± 0.014	1.02 ± 0.017	1.04 ± 0.097	1.08 ± 0.066
UMPS (UniProt P11172)	0.99 ± 0.028	0.912 ± 0.093	0.954 ± 0.024	0.96 ± 0.036	0.969 ± 0.025	0.919 ± 0.049
ANXA2 (UniProt P07355)	0.938 ± 0.056	1 ± 0.099	0.942 ± 0.052	1.04 ± 0.1	1.01 ± 0.057	1.02 ± 0.082
UniProt P16591 and related entries	0.966 ± 0.056	0.904 ± 0.12	0.913 ± 0.078	0.878 ± 0.093	0.857 ± 0.093	0.821 ± 0.1
HPRT1 (UniProt P00492)	0.978 ± 0.027	0.881 ± 0.074	0.997 ± 0.025	0.981 ± 0.099	1.06 ± 0.091	1 ± 0.1
HSP90AB1 (UniProt P08238)	1.02 ± 0.026	0.964 ± 0.056	0.99 ± 0.017	1.05 ± 0.052	1.04 ± 0.011	1.03 ± 0.035
UniProt P14316 and related entries	1.02 ± 0.055	1.08 ± 0.11	1.07 ± 0.036	1.08 ± 0.049	1.09 ± 0.033	1.1 ± 0.046
ENO2 (UniProt P09104)	1.01 ± 0.012	0.997 ± 0.015	0.9698 ± 0.0082	0.986 ± 0.023	0.99 ± 0.038	0.946 ± 0.046
TOMM40 (UniProt O96008)	0.99 ± 0.023	0.976 ± 0.016	0.984 ± 0.027	1.04 ± 0.07	1.06 ± 0.021	1.042 ± 0.0058
UniProt P09651-2|P09651	1.04 ± 0.11	1.09 ± 0.075	1.09 ± 0.11	1.14 ± 0.15	1.18 ± 0.15	1.25 ± 0.18
EPHX1 (UniProt P07099)	0.953 ± 0.024	0.957 ± 0.037	0.996 ± 0.041	0.952 ± 0.044	0.962 ± 0.081	0.956 ± 0.045
XRCC6 (UniProt P12956)	0.898 ± 0.14	0.892 ± 0.12	0.852 ± 0.082	0.88 ± 0.06	0.932 ± 0.031	0.855 ± 0.092
UniProt P05388 and related entries	0.99 ± 0.024	0.989 ± 0.062	0.952 ± 0.04	0.98 ± 0.052	0.936 ± 0.055	1.02 ± 0.054

Single records (already shown). Order of values: NP40-soluble protein abundance (concentration: 1mM)	NP40-soluble protein abundance (concentration: 2mM)	NP40-soluble protein abundance (concentration: 4mM)	NP40-soluble protein abundance (concentration: 6mM)	NP40-soluble protein abundance (concentration: 8mM)	NP40-soluble protein abundance (concentration: 10mM)
UniProt P09693 reads 1 ± 0.045	1.03 ± 0.1	0.979 ± 0.058	1 ± 0.025	0.997 ± 0.051	0.998 ± 0.018
EPHX1 (UniProt P07099) reads 0.953 ± 0.024	0.957 ± 0.037	0.996 ± 0.041	0.952 ± 0.044	0.962 ± 0.081	0.956 ± 0.045
COX6B1 (UniProt P14854) reads 0.864 ± 0.041	0.926 ± 0.032	0.916 ± 0.063	0.86 ± 0.055	0.821 ± 0.016	0.839 ± 0.019

(cont.)

Target	NP40-soluble protein abundance (concentration: 1mM)	NP40-soluble protein abundance (concentration: 2mM)	NP40-soluble protein abundance (concentration: 4mM)	NP40-soluble protein abundance (concentration: 6mM)	NP40-soluble protein abundance (concentration: 8mM)	NP40-soluble protein abundance (concentration: 10mM)
UniProt P09488 and related entries	0.944 ± 0.031	0.913 ± 0.032	0.968 ± 0.032	1.06 ± 0.1	1.07 ± 0.061	1.02 ± 0.035
FUCA1 (UniProt P04066)	0.956 ± 0.022	0.937 ± 0.022	0.969 ± 0.036	1.01 ± 0.05	1.12 ± 0.094	1 ± 0.074
CTSB (UniProt P07858)	1.01 ± 0.035	1.03 ± 0.025	0.995 ± 0.043	0.968 ± 0.035	0.971 ± 0.037	0.966 ± 0.055
TXN (UniProt P10599)	1.01 ± 0.038	1.04 ± 0.07	0.981 ± 0.053	0.9967 ± 0.0035	0.966 ± 0.043	0.954 ± 0.051
LCP1 (UniProt P13796)	0.939 ± 0.066	0.926 ± 0.018	0.908 ± 0.059	0.936 ± 0.018	0.978 ± 0.024	0.913 ± 0.035
SNRPA1 (UniProt P09661)	1.026 ± 0.0055	1.09 ± 0.055	1.12 ± 0.024	1.19 ± 0.052	1.21 ± 0.04	1.25 ± 0.037
UniProt P04424 and related entries	1.01 ± 0.033	1 ± 0.028	1.02 ± 0.047	0.98 ± 0.025	0.978 ± 0.025	0.992 ± 0.024
UniProt P15882 and related entries	0.993 ± 0.023	0.959 ± 0.055	0.965 ± 0.01	0.971 ± 0.02	0.934 ± 0.022	0.925 ± 0.026
UniProt P00387 and related entries	0.941 ± 0.044	0.867 ± 0.081	0.966 ± 0.047	0.992 ± 0.089	1.05 ± 0.05	0.983 ± 0.054
UniProt P13861 and related entries	0.989 ± 0.02	0.961 ± 0.037	0.971 ± 0.031	0.976 ± 0.035	0.949 ± 0.025	0.951 ± 0.036
UniProt P12931 and related entries	0.984 ± 0.033	0.942 ± 0.074	0.987 ± 0.021	0.964 ± 0.019	1.01 ± 0.023	0.96 ± 0.023
UniProt P06126	0.992 ± 0.037	0.977 ± 0.045	0.995 ± 0.034	0.986 ± 0.038	1.03 ± 0.011	1.02 ± 0.029
IGF2R (UniProt P11717)	0.999 ± 0.035	1.05 ± 0.093	0.998 ± 0.048	1.06 ± 0.029	1.04 ± 0.029	1.07 ± 0.068
UniProt P13051 and related entries	0.992 ± 0.058	0.987 ± 0.01	0.9971 ± 0.0073	1.08 ± 0.068	1.07 ± 0.043	1.06 ± 0.027
UniProt O96005 and related entries	1.02 ± 0.065	0.971 ± 0.019	0.999 ± 0.044	0.994 ± 0.057	0.984 ± 0.037	1 ± 0.041
UniProt P16298 and related entries	1.01 ± 0.036	0.998 ± 0.028	0.993 ± 0.046	0.931 ± 0.03	0.952 ± 0.049	0.953 ± 0.053
UniProt P04921 and related entries	1.09 ± 0.078	1.17 ± 0.059	1.068 ± 0.0068	1.17 ± 0.068	1.09 ± 0.062	1.12 ± 0.032
UCHL3 (UniProt P15374)	1.06 ± 0.013	1.05 ± 0.017	1.04 ± 0.025	1.01 ± 0.0052	1.02 ± 0.012	0.988 ± 0.038
FBXO45 (UniProt P0C2W1)	0.976 ± 0.035	0.971 ± 0.031	0.967 ± 0.025	1.01 ± 0.024	1 ± 0.041	0.995 ± 0.048
GAA (UniProt P10253)	0.998 ± 0.011	0.992 ± 0.012	1.02 ± 0.022	1.02 ± 0.047	1.04 ± 0.014	1.04 ± 0.031

Target	NP40-soluble protein abundance (concentration: 1mM)	NP40-soluble protein abundance (concentration: 2mM)	NP40-soluble protein abundance (concentration: 4mM)	NP40-soluble protein abundance (concentration: 6mM)	NP40-soluble protein abundance (concentration: 8mM)	NP40-soluble protein abundance (concentration: 10mM)
UniProt P15812 and related entries	0.971 ± 0.011	0.965 ± 0.023	0.962 ± 0.011	1.01 ± 0.037	1.03 ± 0.052	1.03 ± 0.046
UniProt P04844 and related entries	0.962 ± 0.029	0.867 ± 0.076	0.925 ± 0.033	0.954 ± 0.031	0.964 ± 0.025	0.906 ± 0.021
TXNDC12 (UniProt O95881)	0.988 ± 0.062	1.04 ± 0.025	0.962 ± 0.099	0.937 ± 0.038	0.91 ± 0.029	0.919 ± 0.083
PLCG2 (UniProt P16885)	0.987 ± 0.017	0.901 ± 0.13	0.958 ± 0.041	0.915 ± 0.019	0.951 ± 0.044	0.895 ± 0.045
UniProt P14618 and related entries	1.02 ± 0.077	0.854 ± 0.066	0.994 ± 0.073	0.888 ± 0.091	0.988 ± 0.034	0.875 ± 0.092
UniProt O95905 and related entries	0.9484 ± 0.0046	0.9697 ± 0.0075	0.97062 ± 3.8e-05	0.9848 ± 0.0086	0.998 ± 0.021	0.991 ± 0.029
SNAP29 (UniProt O95721)	1.01 ± 0.063	1.07 ± 0.084	1.01 ± 0.086	0.964 ± 0.018	0.978 ± 0.031	0.968 ± 0.072
UniProt P06576 and related entries	1.03 ± 0.059	1.02 ± 0.036	1.01 ± 0.032	0.965 ± 0.077	0.951 ± 0.057	0.985 ± 0.076
UniProt P05023 and related entries	1.05 ± 0.052	1.06 ± 0.021	1.03 ± 0.037	0.995 ± 0.053	0.993 ± 0.068	0.98 ± 0.053
UniProt O95782 and related entries	0.994 ± 0.03	0.953 ± 0.058	1.07 ± 0.046	1.09 ± 0.044	1.13 ± 0.021	1.13 ± 0.056
UniProt P11310 and related entries	1.02 ± 0.017	0.995 ± 0.034	0.988 ± 0.022	1.02 ± 0.037	1 ± 0.049	1.01 ± 0.049
UniProt O95834 and related entries	0.988 ± 0.011	0.932 ± 0.081	0.982 ± 0.023	0.952 ± 0.018	0.967 ± 0.015	0.93 ± 0.022
UniProt O96011 and related entries	0.923 ± 0.051	0.902 ± 0.023	0.919 ± 0.081	1.03 ± 0.1	1.04 ± 0.065	0.991 ± 0.041
ALDOC (UniProt P09972)	1.01 ± 0.023	1.01 ± 0.018	1.01 ± 0.042	1.06 ± 0.058	1.07 ± 0.043	1.09 ± 0.035
HIST1H1B (UniProt P16401)	1.052 ± 0.0074	1.18 ± 0.18	1.15 ± 0.11	1.27 ± 0.22	1.32 ± 0.21	1.59 ± 0.19
OAT (UniProt P04181)	1 ± 0.061	0.963 ± 0.038	0.992 ± 0.066	1.03 ± 0.043	1.02 ± 0.064	1.04 ± 0.036
ATP2A2 (UniProt P16615)	0.968 ± 0.015	0.927 ± 0.069	0.973 ± 0.018	0.967 ± 0.032	0.976 ± 0.021	0.953 ± 0.019
POLR3D (UniProt P05423)	0.982 ± 0.017	1.01 ± 0.02	0.993 ± 0.035	0.961 ± 0.041	0.971 ± 0.037	0.998 ± 0.065
ADH5 (UniProt P11766)	0.978 ± 0.043	0.947 ± 0.017	0.957 ± 0.038	1 ± 0.065	1.01 ± 0.027	0.99 ± 0.022
UniProt P14735 and related entries	0.996 ± 0.017	0.924 ± 0.12	0.973 ± 0.044	0.966 ± 0.015	0.976 ± 0.019	0.936 ± 0.025
